Test results: PMC8300624
Results are given in words; binding and its absence hold for the method and conditions named. Binding seen in cells or lysates may run through a third protein. Some results given as binding are weak or reduced against the parent protein; the word gives no strength. Tags and fused reporters may be left off the sequences shown.

The chains behind the UniProt entries cited, without tags or fusion partners.
UniProt Q99683: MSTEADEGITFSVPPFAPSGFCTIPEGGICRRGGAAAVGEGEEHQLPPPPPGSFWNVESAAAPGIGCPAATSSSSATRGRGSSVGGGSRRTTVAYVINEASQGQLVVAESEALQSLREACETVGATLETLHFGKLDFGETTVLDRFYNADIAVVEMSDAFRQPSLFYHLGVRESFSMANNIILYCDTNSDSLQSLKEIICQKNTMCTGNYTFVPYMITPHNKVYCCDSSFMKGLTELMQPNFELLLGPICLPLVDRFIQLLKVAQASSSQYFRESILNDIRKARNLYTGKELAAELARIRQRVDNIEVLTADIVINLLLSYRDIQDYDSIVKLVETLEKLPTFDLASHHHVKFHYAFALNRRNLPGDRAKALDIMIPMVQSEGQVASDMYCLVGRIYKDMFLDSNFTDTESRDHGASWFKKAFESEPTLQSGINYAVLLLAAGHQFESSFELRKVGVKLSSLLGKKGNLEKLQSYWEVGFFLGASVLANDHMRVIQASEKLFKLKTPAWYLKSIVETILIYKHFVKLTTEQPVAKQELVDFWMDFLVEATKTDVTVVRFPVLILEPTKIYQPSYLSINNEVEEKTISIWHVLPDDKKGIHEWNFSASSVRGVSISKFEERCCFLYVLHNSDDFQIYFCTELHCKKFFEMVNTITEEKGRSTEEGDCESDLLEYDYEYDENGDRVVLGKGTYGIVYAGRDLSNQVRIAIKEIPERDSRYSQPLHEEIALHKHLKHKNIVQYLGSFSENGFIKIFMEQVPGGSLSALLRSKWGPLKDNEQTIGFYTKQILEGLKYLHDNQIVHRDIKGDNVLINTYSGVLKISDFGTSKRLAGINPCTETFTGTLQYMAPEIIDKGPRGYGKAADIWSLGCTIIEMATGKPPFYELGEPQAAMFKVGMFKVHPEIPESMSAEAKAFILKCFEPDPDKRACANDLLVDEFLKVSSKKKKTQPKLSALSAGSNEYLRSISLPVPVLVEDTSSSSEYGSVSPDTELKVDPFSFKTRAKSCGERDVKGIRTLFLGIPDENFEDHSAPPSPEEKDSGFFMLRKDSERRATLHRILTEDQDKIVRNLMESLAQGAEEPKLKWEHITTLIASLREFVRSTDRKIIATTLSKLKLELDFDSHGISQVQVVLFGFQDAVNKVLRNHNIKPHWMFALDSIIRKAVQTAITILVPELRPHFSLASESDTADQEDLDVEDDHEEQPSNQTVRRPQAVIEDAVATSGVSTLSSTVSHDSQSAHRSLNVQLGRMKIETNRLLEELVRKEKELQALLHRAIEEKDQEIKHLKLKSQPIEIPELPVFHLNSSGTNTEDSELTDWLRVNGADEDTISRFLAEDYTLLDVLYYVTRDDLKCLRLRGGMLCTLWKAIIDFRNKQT

Key:
[1] = target: ASK1-LN (apoptosis signal-regulating kinase 1 fused to the N-terminal half of mLumin) (human) (UniProt Q99683); assay: split reporter; mLumin BiFC in live HEK293 MSR cells, repeated in AnxA2 KO HEK293 MSR cells; LN and LC constructs and GFP co-transfected in equimolar ratio; cells treated with 100 µM H2O2 for 30 min, X/XO (8 µM xanthine, 1 mU/mL xanthine oxidase) for 18 h or 0.8 µM auranofin for 18 h; read-out mLumin/GFP integrated fluorescence
[2] = target: ASK1-LN (apoptosis signal-regulating kinase 1 fused to the N-terminal half of mLumin) (human) (UniProt Q99683); assay: condition: only cells without a treatment that raises H2O2; split reporter; mLumin BiFC in live HEK293 MSR cells, no treatment (no exogenous H2O2, X/XO or auranofin); read-out mLumin/GFP integrated fluorescence

| binding [1] | binding [2] | Binder |
| --- | --- | --- |
| binds |  | Prdx1 C173A-LC (resolving cysteine mutant fused to the C-terminal half of mLumin) (enzyme, UniProt Q06830 1-199) MSSGNAKIGHPAPNFKATAVMPDGQFKDISLSDYKGKYVVFFFYPLDFTFVCPTEIIAFSDRAEEFKKLNCQVIGASVDSHFCHLAWVNTPKKQGGLGPMNIPLVSDPKRTIAQDYGVLKADEGISFRGLFIIDDKGILRQITVNDLPVGRSVDETLRLVQAFQFTDKHGEVAPAGWKPGSDTIKPDVQKSKEYFSKQK |
|  | no binding | Prdx1 WT-LC (peroxiredoxin-1 fused to the C-terminal half of mLumin) (enzyme, UniProt Q06830 1-199) MSSGNAKIGHPAPNFKATAVMPDGQFKDISLSDYKGKYVVFFFYPLDFTFVCPTEIIAFSDRAEEFKKLNCQVIGASVDSHFCHLAWVNTPKKQGGLGPMNIPLVSDPKRTIAQDYGVLKADEGISFRGLFIIDDKGILRQITVNDLPVGRSVDETLRLVQAFQFTDKHGEVCPAGWKPGSDTIKPDVQKSKEYFSKQK |
